Laboratory results: patent US7250422B2, “Pharmaceutical composition containing berberine as effective ingredient for preventing and treating addiction or tolerance to morphine” (priority 2002, dated 2007)

What was measured:
Male ICR mice = conditions: morphine 5 mg/kg s.c. single administration vs control; P<0.001; FIG. 3
mice = experiment: Hot-plate test, morphine tolerance caused by repeated administration; assay type: in vivo; conditions: morphine 10 mg/kg s.c. once per day for six days, tested day 7; FIG. 4

## CN1CC[C@]23c4c5ccc(O)c4O[C@H]2[C@@H](O)C=C[C@H]3[C@H]1C5 [morphine]
Male ICR mice
  analgesic effect (AUC of % MPE): significantly increased analgesic effect
mice
  initial analgesic effect after repeated administration (AUC), morphine tolerance: greatly reduced
